# PubChem BioAssay AID493014 (National Center for Advancing Translational Sciences (NCATS), 2011)
# Screen size: about 340,000 compounds; about 170 (0.05%) were called active. Inconclusive means that the source gave no clear call. Such entries were picked first, then a sample of the others. Calls come from the whole dose curve; as a rule, active = well fitted inhibition curve with a large enough effect in the signal ratio, with a control signal flat (not every such curve was filed as active); inconclusive = small, poorly fitted or top-dose-only effect, or effect the other way, or a change in a side signal; inactive = flat fitted curve, though single readings scatter; the % refers to the signal ratio. Potencies beside an inconclusive call are fits to weak or partial responses and may not hold up.
# Experiment: qHTS Assay to Find Inhibitors of Chronic Active B-Cell Receptor Signaling;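 for activity change, negative = inhibition: plate controls were basal doxycycline-induced cells for no effect and cells given 10 µM MG132 for full effect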
# Details: ABC-DLBCL IkBa-CBG/CBR reporter, luminescence ratio (green luciferase fused to IkBa over red control in TMD8 lymphoma cells), 4 h; activity change, negative = inhibition: at 46.1 µM (top of the series)
# Method in brief: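 Cell line TMD8 (human ABC DLBCL), stably expressing tet-inducible CBG68-IkBa fusion and CBR; IMDM/0.5% FBS; cpd up to 46 uM; dox induction, 4 h, 37C/5% CO2; dual luminescence; green/red ratio; MG132 control.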
# Potency is the fitted concentration of half-maximal effect.
SMILES,"activity change, negative = inhibition",Potency
O=C(CCC(=O)Nc1nnc(C2CCCCC2)s1)NCC1CCCO1 (configuration not stated),inconclusive: 15.4%,–
Cc1cccc(OCC(O)Cn2c(=N)n(Cc3ccccc3)c3ccccc32)c1 (configuration not stated),inconclusive: -13.3%,–
COc1ccc(N2CCN(CC(=O)Nc3c(C)cc(C)cc3C)CC2)cc1,inconclusive: -0.297%,–
CCc1ccc2[nH]c(=O)c(CN(CCCN3CCOCC3)C(=O)Nc3cccc(Cl)c3)cc2c1,inconclusive: 8.48%,–
Cc1cccc(OCc2nnc(N)s2)c1C,inconclusive: -0.0348%,–
N#C/C(=C1/C(=O)Nc2ccc(Br)cc21)c1ccccn1,inactive,–
Cc1ccc(C(=O)N/C(=C\c2cccnc2)c2nc3ccccc3[nH]2)cc1,inactive,–
S=c1[nH]nc(COc2ccccc2)n1/N=C/c1ccc(Cl)cc1,inactive,–
CCCCn1c(SCC(=O)NCc2ccc(OC)c(C(=O)O)c2)nc2cc(S(N)(=O)=O)ccc21,–,"inconclusive: 6.31 µM [falling, single point]"
Cc1cc(C)c(S(=O)(=O)/N=C2\C=C(NS(=O)(=O)c3ccccc3)C(=O)c3ccccc32)c(C)c1,inactive,–
CC(C)(C)NC(=O)CSc1ncccc1-c1nc2ccccc2[nH]1,inconclusive: -19.7%,–
O=C(CSc1cccc2cccnc12)Nc1ccccc1F,–,"inconclusive: 35.5 µM [rising, single point]"
CCC(C)Oc1ccccc1C1CC(=O)NC2=C1C(=O)CCC2 (configuration not stated),inactive,–
Cc1ccc(COC(=O)c2nn(C)c(=O)c3ccccc23)cc1,inconclusive: -2.49%,–
CC(C(=O)OCc1nnc(-c2ccccc2)o1)N1C(=O)c2ccccc2C1=O (configuration not stated),inactive,–
CC1=NN(c2ccc(C)c(C)c2)C(=O)/C1=C/c1ccc2c(c1)n(C)c(=O)n2C,–,"inconclusive: 2.06 µM [activator, full curve]"
C=CCn1c(=O)c2ccccc2n2c(SCC(=O)Nc3sc(C)c(CC)c3C(=O)OCC)nnc12,inactive,–
Cc1ccc(N2C(=O)N3[C@H](c4ccc(Br)cc4)[C@@H]4C(=O)N(C(C)(C)C)C(=O)[C@@H]4[C@]3(C)C2=O)cc1,inconclusive: 12.3%,–
COc1ccccc1-c1nc(N)n[nH]1,–,"inconclusive: 22.4 µM [falling, partial curve]"
O=C(CN1CCOCC1)N/N=C/C(Br)=C\c1ccccc1,inconclusive: -2.22%,–
CCOC(=O)N1CCN(Cc2c(O)ccc3ccccc23)CC1,inconclusive: 8.92%,–

SMILES,"activity change, negative = inhibition",Potency
COc1ccc(-c2cc(C(C)=O)c(C)n2CCC(=O)Nc2ccc(C)cc2Cl)cc1,inactive,–
O=C(C1CCN(S(=O)(=O)c2cccnc2)CC1)N1CCCCC1,inconclusive: 2.6%,–
C#CCOCCOCCOCCNc1nc(N2CCN(C(=O)[C@H](CCC(=O)O)n3cc([C@@H](N)[C@H](C)CC)nn3)CC2)nc(N2CCN(C(=O)[C@H](CCCCN)n3cc([C@@H](N)CC(N)=O)nn3)CC2)n1,inactive,–
O=C(COc1ccc(Br)cc1)Nc1ccc(N2CCOCC2)cc1N1CCOCC1,inconclusive: 4.5%,–
O=C1C(Cl)=C(N2CCOCC2)C(=O)N1c1ccc(Br)cc1,inactive,–
O=C(O)c1ccccc1NS(=O)(=O)c1ccccc1C(F)(F)F,inconclusive: 7.81%,–
O=C(Nc1ccc2c(c1)CCC2)c1cccc(F)c1,inactive,–
COc1ccc(CNC(=O)Cn2nc([N+](=O)[O-])c(Br)c2C)cc1OC,inconclusive: -1.93%,–
Cc1c(Cl)c(C(=O)NNC(=S)Nc2ccc(F)cc2)nn1C,–,"inconclusive: 22.4 µM [falling, partial curve]"
CC(C)Sc1cc(N2CCCC2)nc(-c2ccc(F)cc2)n1,inconclusive: 10.8%,–
O=C(c1ccccc1)N1N=C(C(F)(F)F)CC1(O)c1ccc(F)cc1 (configuration not stated),–,"inconclusive: 22.4 µM [falling, single point]"
COc1cc(OC)c2c(-c3ccccc3)cc(=O)oc2c1C(CCN1CCN(c2ccccc2)CC1)c1ccc(N(C)C)cc1 (configuration not stated),inactive,–
CN(C)C(=O)OCC1COc2ccccc2O1 (configuration not stated),inconclusive: 16.1%,–
COc1ccc(S(=O)(=O)N2CCOC2CNC(=O)C(=O)NCCN2CCOCC2)cc1C (configuration not stated),inactive,–
CC1CCCC(C)N1C(=O)Cc1ccccc1 (configuration not stated),inactive,–
C=CCN1C(=O)c2cccc3c(Br)ccc(c23)C1=O,–,"inconclusive: 5.62 µM [falling, partial curve, poor fit]"
Cc1occc1-c1nc(-c2ccncc2)no1,inconclusive: -7.06%,–
Cc1c(NC(=O)c2cc(-n3cnnc3)ccc2Cl)cccc1-c1nc2ccccc2o1,–,"inconclusive: 2.31 µM [rising, full curve]"
C/C(=N/NC(=O)CN(c1ccccc1)S(=O)(=O)c1ccccc1)c1ccccc1O,inactive,–
O=C(Nc1ccc2c(c1)OCCO2)c1cccc(S(=O)(=O)N2CCCCC2)c1,inactive,–
O=c1c2c(O)cc(O)cc2oc2ccc(O)c(O[C@@H]3O[C@H](CO)[C@@H](O)[C@H](O)[C@H]3O[C@H]3O[C@H](CO)[C@@H](O)[C@H](O)[C@H]3O)c12,–,"inconclusive: 13 µM [rising, partial curve]"

SMILES,"activity change, negative = inhibition",Potency
COc1cc(NC(=O)CNC(=O)Cn2ccc3ccccc3c2=O)cc(OC)c1OC,inactive,–
CC1(C)CC(=O)c2c(noc2-c2ccccc2)C1,inactive,–
CCOc1cc(CNc2ccc3c(c2)OCCO3)cc(Br)c1OCC(N)=O,inconclusive: -15.1%,–
COc1ccc(COc2cc(-c3cccc(OC)c3)nc3ccc(NC(=O)c4ccc(C)cc4)cc23)cc1,–,"inconclusive: 29.1 µM [falling, single point]"
COc1cc(/C(C)=C/c2ccccc2)c2c(c1)oc1ccccc12,–,"inconclusive: 11.2 µM [rising, partial curve, poor fit]"
CC1CCC(NC(=O)COC(=O)c2ccc3ncsc3c2)CC1 (configuration not stated),–,"inconclusive: 29.1 µM [falling, single point]"
O=C(NCCc1ccc(Cl)cc1)C1CCN(C(=O)c2ccc(F)cc2)CC1,inactive,–
Cc1nn(-c2ccccc2)c(N)c1Sc1ccccc1[N+](=O)[O-],inactive,–
COc1ccc(-c2nnc(SCC(=O)NCCc3ccccc3)o2)cc1,inconclusive: 4.26%,–
Cn1cccc1C(=O)OCc1cc(Cl)cc2c1OCOC2,–,"inconclusive: 20 µM [falling, partial curve, poor fit]"
CCCCOC(=O)Nc1ccc(S(=O)(=O)Nc2onc(C)c2C)cc1,inconclusive: 0.913%,–
NC(=O)c1ccsc1NC(=O)CCS(=O)(=O)c1ccc(F)cc1,inconclusive: -15.2%,–
CC(C)(C)n1ncc(Oc2ccccc2[N+](=O)[O-])c(Cl)c1=O,inactive,–
CCOc1ccc(N(CC(=O)Nc2ccc(C)cc2C)S(C)(=O)=O)cc1,inactive,–
Cc1cc(NC(=O)CCC(=O)N(C2CC2)C(C(=O)NC(C)(C)C)c2ccccc2Cl)no1 (configuration not stated),inactive,–
Cc1c(Br)c([N+](=O)[O-])nn1CC(=O)N1CCCc2ccccc21,inconclusive: 4.19%,–
CCOc1cc(O)c(-c2[nH]ncc2-c2nc(C)cs2)cc1CC,inconclusive: -8.85%,–
Cc1cccc(N/C=C/C(=O)c2ccc(Cl)cc2)c1,–,"inconclusive: 11.2 µM [falling, partial curve]"
Cc1cc(NC(=O)c2ccc(-c3ccccc3F)o2)no1,inactive,–
COc1cccc(-c2onc3ccc(C(C)=O)cc23)c1,inconclusive: -1.65%,–
COc1cc(CCCN2C(N)=NC[C@@H]2Cc2ccccc2)cc(OC)c1OC,inconclusive: 3.52%,–

# Reformatted tab-delimited: part of the list above
SMILES	activity change, negative = inhibition	Potency
Cc1c(Br)c([N+](=O)[O-])nn1CC(=O)N1CCCc2ccccc21	inconclusive: 4.19%	–
CCOc1cc(O)c(-c2[nH]ncc2-c2nc(C)cs2)cc1CC	inconclusive: -8.85%	–
Cc1cccc(N/C=C/C(=O)c2ccc(Cl)cc2)c1	–	inconclusive: 11.2 µM [falling, partial curve]
Cc1cc(NC(=O)c2ccc(-c3ccccc3F)o2)no1	inactive	–
COc1cccc(-c2onc3ccc(C(C)=O)cc23)c1	inconclusive: -1.65%	–
COc1cc(CCCN2C(N)=NC[C@@H]2Cc2ccccc2)cc(OC)c1OC	inconclusive: 3.52%	–

# The results go on.

SMILES,"activity change, negative = inhibition",Potency
Cc1nn(-c2ccccc2)c(C)c1/C=N/NC(=O)c1cnccn1,inconclusive: 0.355%,–
O=C(COC(=O)c1cccc(S(=O)(=O)N2CCCCCC2)c1)Nc1ccccc1C(F)(F)F,inactive,–
CCOc1ccccc1C(=O)Nc1cc(Cl)ccc1O,inconclusive: -0.889%,–
N#Cc1c2nc3ccccc3nc2n2cc(NC(=O)c3ccc(F)cc3)ccc12,inactive,–
Nc1ccc(S(=O)(=O)N2CCC(Cc3ccccc3)CC2)cc1,inconclusive: -1.82%,–
CC(C)(C)c1ccc(/C=C/C(=O)Nc2nncs2)cc1,inactive,–
O=C(NN1CCOCC1)c1ccc(Cl)cc1,inconclusive: 8.21%,–
COC(=O)Cc1c(C)c2ccc(OCC(=O)N3CCC(C)CC3)c(C)c2oc1=O,inconclusive: -12.6%,–
Cc1cc(C)cc(NC(=O)C(=O)NCCCN2CCOCC2)c1,inactive,–
Cc1cccc(NC(=O)CSc2nc(=O)n(Cc3ccco3)c3c2CCC3)c1C,inactive,–
COCC1CCCCN1C(=O)c1ccc2nc(Cc3ccc(OC)c(OC)c3)oc2c1 (configuration not stated),inconclusive: 2.72%,–
COc1ccc(NC(=O)c2oc3ccccc3c2NC(=O)C(C)(C)C)cc1,–,"inconclusive: 0.92 µM [rising, full curve, poor fit]"
CCOC(=O)C1=C(C)OC(N)=C(C#N)C1c1ccc(C)o1 (configuration not stated),inconclusive: 7.95%,–
CCO[C@@H]1OC(C(=O)NCc2nc3ccccc3[nH]2)=C[C@H](c2csc3ccccc23)[C@H]1CCCO,–,"inconclusive: 35.5 µM [falling, single point]"
CC1(C)Cc2c(C#N)c(NCC3CCCO3)nc(-c3ccco3)c2CO1 (configuration not stated),inconclusive: 14.5%,–
COc1ccc(/C=C/c2cc(C(=O)O)c3ccccc3n2)cc1,–,"inconclusive: 2.51 µM [falling, full curve]"
O=C(Nc1ccccc1)N(Cc1ccccc1)CC(O)C(F)(F)F (configuration not stated),inactive,–
O=C(Nc1ccc(-c2cn3c(n2)SCC3)cc1)c1ccco1,inconclusive: 0.662%,–
CCCC1C(c2ccc(OC)cc2)C(C#N)(C#N)C2(C#N)CC1(N)NC2=O (configuration not stated),inconclusive: -1.09%,–
